From PubChem BioAssay (NCATS)
This is one part of the list. Further columns of the screen follow, without active or inactive calls. For part of these data: Most of these compounds were active or inconclusive in the main read-out, so they are no random draw. Potencies come from curve fits of mixed quality, noted in brackets.

The chains behind the UniProt entries cited, without tags or fusion partners. Where a name states a change or a piece, a line headed by the entry shows the natural chain unless it says otherwise.
UniProt P21964: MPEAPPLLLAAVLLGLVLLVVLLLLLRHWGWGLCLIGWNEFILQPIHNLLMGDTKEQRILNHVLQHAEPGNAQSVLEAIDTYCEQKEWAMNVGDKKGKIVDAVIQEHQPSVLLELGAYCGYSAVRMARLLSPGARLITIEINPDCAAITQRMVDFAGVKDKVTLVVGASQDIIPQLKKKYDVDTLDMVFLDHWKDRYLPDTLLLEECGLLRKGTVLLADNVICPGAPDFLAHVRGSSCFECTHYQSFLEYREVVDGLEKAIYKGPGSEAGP
UniProt P50135: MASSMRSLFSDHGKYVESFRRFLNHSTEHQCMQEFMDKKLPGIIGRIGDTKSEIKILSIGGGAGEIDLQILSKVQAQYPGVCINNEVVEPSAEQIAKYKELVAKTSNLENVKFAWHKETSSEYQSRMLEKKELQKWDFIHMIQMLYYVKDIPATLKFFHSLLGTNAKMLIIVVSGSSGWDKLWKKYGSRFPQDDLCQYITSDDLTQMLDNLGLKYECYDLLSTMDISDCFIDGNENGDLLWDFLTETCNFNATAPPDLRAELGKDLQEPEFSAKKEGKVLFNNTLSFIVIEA
UniProt P40261: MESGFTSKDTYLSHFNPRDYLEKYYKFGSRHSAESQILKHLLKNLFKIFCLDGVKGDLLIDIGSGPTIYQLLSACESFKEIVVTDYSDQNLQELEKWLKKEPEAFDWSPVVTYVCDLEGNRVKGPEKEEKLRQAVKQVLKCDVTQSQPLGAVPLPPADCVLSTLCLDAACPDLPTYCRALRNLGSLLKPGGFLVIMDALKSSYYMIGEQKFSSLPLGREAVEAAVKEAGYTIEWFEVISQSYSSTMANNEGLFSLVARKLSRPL
UniProt P11086: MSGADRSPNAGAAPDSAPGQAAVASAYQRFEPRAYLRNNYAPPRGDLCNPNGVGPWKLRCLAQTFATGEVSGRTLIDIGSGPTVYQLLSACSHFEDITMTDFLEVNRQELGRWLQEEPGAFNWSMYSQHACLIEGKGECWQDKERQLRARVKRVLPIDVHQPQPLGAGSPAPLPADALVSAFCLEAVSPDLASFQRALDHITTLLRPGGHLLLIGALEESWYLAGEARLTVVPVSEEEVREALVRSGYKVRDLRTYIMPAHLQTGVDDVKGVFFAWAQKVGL

How the values were obtained:
[1] = S16 Schwann cell PMP22 intronic element beta-lactamase assay (AID 624044); conditions: S16 rat Schwann cells, PMP22 element beta-lactamase FRET, 24 h; measured here: 460 nm blue channel
How it was run: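 Rat S16 Schwann cells with beta-Lac driven by a PMP22 intronic element, compound-treated 24 h at 37 °C. LiveBLAzer FRET B/G read: 460 nm normalized to potassium clavulanate vs DMSO; 535 nm FRET as viability; concentration-effect curves classified.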

[2] = A High-Content qHTS Against Drug Library for the Identification of Small Molecules that Inhibit DYT1 Early Onset Primary Dystonia-Associated Cell Pathology (AID 1645839); conditions: HEK293 Flp-In EGFP-delE TorsinA, punctate imaging, 48 h; measured here: cell count cytotoxicity
How it was run: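 Readout: %pathology, the punctate EGFP-TorsinA distribution from imaging, as the primary channel and cell count as the toxicity counterscreen. HEK293 Flp-In cells expressing delE TorsinA were induced with tetracycline and treated with compound for 48 h.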

[3] = biological target: Catechol O-methyltransferase (Homo sapiens) (UniProt P21964); assay: Confirmatory Screen for Target Class Profiling of Small Molecule Inhibitors of Methyltransferases (AID 1745852); conditions: MTase-Glo luminescence, SAH detection, recombinant enzyme; measured here: COMT inhibition potency
[4] = biological target: Histamine N-methyltransferase (Homo sapiens) (UniProt P50135); assay: as above; conditions: MTase-Glo luminescence, SAH detection, recombinant enzyme; measured here: HNMT inhibition potency
[5] = biological target: Nicotinamide N-methyltransferase (Homo sapiens) (UniProt P40261); assay: as above; conditions: MTase-Glo luminescence, SAH detection, recombinant enzyme; measured here: NNMT inhibition potency
[6] = biological target: Phenylethanolamine N-methyltransferase (Homo sapiens) (UniProt P11086); assay: as above; conditions: MTase-Glo luminescence, SAH detection, recombinant enzyme; measured here: PNMT inhibition potency
[7] = qHTS drug screen for cell cycle checkpoint inhibitors in PARPi-resistant BRCA-mutant ovarian cancer cell lines. (AID 1963452); conditions: PEO1/OlaR viability, CellTiter-Glo luminescence, 96 h; measured here: PEO4 viability
How it was run: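 PEO1, PEO4 and PEO1/OlaR ovarian cancer cells, 600 per well, exposed 96 h at 37C to a dilution series. Viability read by CellTiter-Glo luminescence, normalized to DMSO and empty wells; activity summarized as Z-AUC.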

SMILES: CCCCN1CCCC1C(=O)Nc1c(C)cc(C)cc1C (stereo unspecified)
- AC50 [1]: 1.26 µM [falling, full curve, poor fit]
- AC50 [2]: 35.5 µM [falling, partial curve, poor fit]

SMILES: O=C(Nc1cc2cc[nH]c2cn1)c1ccccc1
- IC50 [3]: 19.2 µM [falling, partial curve]
- IC50 [4]: 19.2 µM [falling, partial curve]
- IC50 [5]: 17.1 µM [falling, partial curve]
- IC50 [6]: 19.2 µM [falling, partial curve]

SMILES: CC(C)[C@@](C)(O)[C@@H]1CN(c2nc(-c3[nH]nc4ncccc34)c(F)cc2Cl)CCN1
- IC50 [3]: 24.1 µM [falling, partial curve]
- IC50 [4]: 24.1 µM [falling, partial curve]
- IC50 [5]: 24.1 µM [falling, partial curve]
- IC50 [6]: 24.1 µM [falling, partial curve]

SMILES: Cc1nc(CN(C)c2ncnc3ccc(-c4ccc5c(c4)OCO5)cc23)cs1
- IC50 [3]: 17.1 µM [falling, partial curve]
- IC50 [4]: 17.1 µM [falling, partial curve]
- IC50 [5]: 19.2 µM [falling, partial curve]
- IC50 [6]: 17.1 µM [falling, partial curve]

SMILES: COc1cccc(-c2cn(-c3ccc(CCN4CCC(O)CC4)cc3)c3ncnc(N)c23)c1
- IC50 [3]: 21.5 µM [falling, partial curve]
- IC50 [4]: 19.2 µM [falling, partial curve]
- IC50 [5]: 15.2 µM [falling, partial curve]
- IC50 [6]: 21.5 µM [falling, partial curve]

SMILES: c1ccc(-c2[nH]nc3ncc(-c4cn[nH]c4)nc23)cc1
- IC50 [3]: 27.8 µM [falling, partial curve]
- IC50 [4]: 31.2 µM [falling, partial curve]
- IC50 [5]: 31.2 µM [falling, partial curve]
- IC50 [6]: 27.8 µM [falling, partial curve]

SMILES: C[C@@H](Oc1cc(-n2cnc3ccc(OC4CCN(C)CC4)cc32)sc1C(N)=O)c1ccccc1C(F)(F)F
- IC50 [3]: 21.5 µM [falling, partial curve]
- IC50 [4]: 9.61 µM [falling, partial curve]
- IC50 [5]: 24.1 µM [falling, partial curve]
- IC50 [6]: 21.5 µM [falling, partial curve]

SMILES: c1cn2cc(-c3ccc4cn[nH]c4c3)nc(Nc3ccc(N4CCOCC4)cc3)c2n1
- IC50 [3]: 19.2 µM [falling, partial curve]
- IC50 [4]: 21.5 µM [falling, partial curve]
- IC50 [5]: 21.5 µM [falling, partial curve]
- IC50 [6]: 19.2 µM [falling, partial curve]

SMILES: COCCCNC(=O)c1cnc2n[nH]c(-c3ccccc3)c2n1
- IC50 [3]: 35 µM [falling, partial curve]
- IC50 [4]: 35 µM [falling, partial curve]
- IC50 [5]: 35 µM [falling, partial curve]
- IC50 [6]: 31.2 µM [falling, partial curve]

SMILES: COc1ccc2nc3n[nH]c(C)c3c(NCCOCCO)c2c1
- IC50 [3]: 21.5 µM [falling, partial curve]
- IC50 [4]: 21.5 µM [falling, partial curve]
- IC50 [5]: 27.1 µM [falling, single point]
- IC50 [6]: 24.1 µM [falling, partial curve]
- AC50 [7]: 27.5 µM [falling, single point]

SMILES: Cc1cccc(N2CCN(C(=O)c3ccc4c(=O)[nH]c5c(C(=O)NC(C)C)sc(=S)n5c4c3)CC2)c1C
- IC50 [3]: 24.1 µM [falling, partial curve]
- IC50 [4]: 24.1 µM [falling, partial curve]
- IC50 [5]: 21.5 µM [falling, partial curve]
- IC50 [6]: 34.1 µM [falling, partial curve, poor fit]

SMILES: CC1CCCCCCCc2cc(O)cc(O)c2C(=O)O1 (stereo unspecified)
- IC50 [3]: 24.1 µM [falling, partial curve]
- IC50 [4]: 21.5 µM [falling, partial curve]
- IC50 [5]: 27.1 µM [falling, partial curve]
- IC50 [6]: 27.1 µM [falling, partial curve]

SMILES: CCOC(=O)c1cnc2ccc(-c3cncc(NS(=O)(=O)c4ccccc4)c3)cn12
- IC50 [3]: 27.1 µM [falling, single point]
- IC50 [4]: 38.3 µM [falling, single point]
- IC50 [5]: 42.9 µM [falling, partial curve, poor fit]
- IC50 [6]: 27.1 µM [falling, single point]
